Test results as given in patent US20220064736A1, “UROTHELIAL CANCER AND METHODS OF DETECTION AND TARGETED THERAPY” (THE JOHNS HOPKINS UNIVERSITY, priority 2015, published 2022).
No constants are given. Whether binding was seen depends on the method and setting. In cells and extracts the contact can be indirect. Some entries that bind do so weakly or less than the wild type.

By UniProt entry, the sequences of proteins in these tests, tags left out.
UniProt Q14145: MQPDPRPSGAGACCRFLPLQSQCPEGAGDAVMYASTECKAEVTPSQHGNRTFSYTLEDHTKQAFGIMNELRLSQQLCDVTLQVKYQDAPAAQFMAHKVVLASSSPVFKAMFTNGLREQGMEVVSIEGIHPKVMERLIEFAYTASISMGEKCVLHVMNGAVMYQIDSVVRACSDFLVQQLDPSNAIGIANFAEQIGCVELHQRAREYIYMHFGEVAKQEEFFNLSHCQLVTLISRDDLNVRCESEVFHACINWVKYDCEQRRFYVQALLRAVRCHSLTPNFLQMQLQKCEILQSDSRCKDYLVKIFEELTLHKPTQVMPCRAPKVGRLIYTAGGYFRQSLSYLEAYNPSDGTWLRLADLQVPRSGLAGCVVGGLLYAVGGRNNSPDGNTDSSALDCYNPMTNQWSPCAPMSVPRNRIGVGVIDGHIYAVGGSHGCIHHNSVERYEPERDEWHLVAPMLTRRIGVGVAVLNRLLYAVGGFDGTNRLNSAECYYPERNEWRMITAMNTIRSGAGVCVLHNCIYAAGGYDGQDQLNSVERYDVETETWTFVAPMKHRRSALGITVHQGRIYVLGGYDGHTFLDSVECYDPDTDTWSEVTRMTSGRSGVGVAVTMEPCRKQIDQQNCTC

What was measured:
[1] = biological target: Kelch-like ECH-associated protein-1 (Keap1) (UniProt Q14145); assay: in vitro data of the example (co-immunoprecipitation), as told in the discussion
[2] = biological target: Kelch-like ECH-associated protein-1 (Keap1) (UniProt Q14145); assay: co-immunoprecipitation of endogenous proteins from T24 and BFTC905 cell lysates, western blot

- binding [1]: binds
- binding [2]: binds
B1: PTB Domain-Containing Engulfment Adaptor Protein1 (GULP1) (other, human, UniProt Q9UBP9 1-304, looked up)
chain: MNRAFSRKKDKTWMHTPEALSKHFIPYNAKFLGSTEVEQPKGTEVVRDAVRKLKFARHIKKSEGQKIPKVELQISIYGVKILEPKTKEVQHNCQLHRISFCADDKTDKRIFTFICKDSESNKHLCYVFDSEKCAEEITLTIGQAFDLAYRKFLESGGKDVETRKQIAGLQKRIQDLETENMELKNKVQDLENQLRITQVSAPPAGSMTPKSPSTDIFDMIPFSPISHQSSMPTRNGTQPPPVPSRSTEIKRDLFGAEPFDPFNCGAADFPPDIQSKLDEMQEGFKMGLTLEGTVFCLDPLDSRC
notes: Endogenous protein from cell lysates; also called engulfment adaptor PTB domain containing 1; human homologue of CED-6
